Experimental findings from publication PMC8944046 are described below.

Results are given in words; binding and its absence hold for the method and conditions named. In cells and extracts the contact can be indirect.

In this test the target is T1, CDX2 (Caudal related homeodomain transcription 2) (UniProt Q99626).
T1 sequence: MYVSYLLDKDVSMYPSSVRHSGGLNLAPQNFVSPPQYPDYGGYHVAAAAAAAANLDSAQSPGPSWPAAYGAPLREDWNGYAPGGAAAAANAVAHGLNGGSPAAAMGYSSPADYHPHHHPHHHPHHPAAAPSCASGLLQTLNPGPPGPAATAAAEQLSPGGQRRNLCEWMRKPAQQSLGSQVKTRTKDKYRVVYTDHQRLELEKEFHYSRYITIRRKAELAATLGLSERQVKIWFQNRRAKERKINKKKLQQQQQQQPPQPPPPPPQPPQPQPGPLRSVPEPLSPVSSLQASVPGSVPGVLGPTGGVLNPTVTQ
In words: co-IP; CDX2 immunoprecipitated, immunoblot for Claudin-2; equal CDX2 loading in the IP panel preverified; extracts in RIPA buffer; cells not given. (In general: A western blot detects proteins with antibodies after separation by electrophoresis.)

B1: Claudin-2 (protein, UniProt P57739 1-230)
chain: MASLGLQLVGYILGLLGLLGTLVAMLLPSWKTSSYVGASIVTAVGFSKGLWMECATHSTGITQCDIYSTLLGLPADIQAAQAMMVTSSAISSLACIISVVGMRCTVFCQESRAKDRVAVAGGVFFILGGLLGFIPVAWNLHGILRDFYSPLVPDSMKFEIGEALYLGIISSLFSLIAGIILCFSCSSQRNRSNYYDAYQAQPLATRSSPRPGQPPKVKSEFNSYSLTGYV
Regarding B1, the binding entry is given as “no binding”.
